From patent US10808007B2, “Desacetoxytubulysin H and analogs thereof” (WILLIAM MARSH RICE UNIVERSITY, priority 2015, dated 2020)
Some entries share one result that the patent states for a list of compounds.

Test system: NCI-60 human cancer cell line panel
Experiment: NCI-60 one-dose test
Type: cell-based
Conditions: one-dose test (10 μM), NCI-60 panel
Method: A number of the synthesized compounds (i.e. Tb1-Tb23) were evaluated for their activity against a variety of cancer cell lines, namely the NCI-60 human cancer cell line panel representing leukemia, melanoma, lung, colon, brain, ovary, breast, prostate and kidney types of cancer through the In Vitro Cell Line Screening Project (IVCLSP) of the National Cancer Institute (NCI), and a summary of the results is shown in Table 1. […] As there was interest in the activity in certain other cell lines, these and the remaining compounds (Tb1-Tb41, PTb-D42 and PTb-D43) were subjected to further testing against MES SA (uterine sarcoma cells), MES SA DX (multidrug resistant uterine sarcoma cells), and HEK 293T (human embryonic kidney cells). […] Tubulysins are known to be substrates for Pgp pumps (Xiangming, et al., 2013; Kaur, et al., 2006; Szakacs, et al., 2006) as supported by the observed low activities of all tubulysins tested except Tb28, Tb32 and Tb33.

Row | Structure (SMILES) | outcome of the one-dose test
1 | CCC(C)[C@H](NC(=O)[C@H]1CCCCN1C)C(=O)N(C)[C@H](C[C@@H](OC(C)=O)c1nc(C(=O)NC23C4C5C2C2C3C4C52C(=O)OC)cs1)C(C)C (stereo in doubt) [Tb11, Methyl 4-(2-((1R,3R)-1-acetoxy-3-((2S,3S)—N,3-dimethyl-2-((R)-1-methylpiperidine-2-carboxamido)-pentanamido)-4-methylpentyl)thiazole-4-carboxamido)cubane-1-carboxylate] | advanced to further testing at lower concentrations
2 | CC[C@H](C)[C@H](NC(=O)N[C@@H](C)c1ccccc1)C(=O)N(C)[C@H](C[C@@H](OC(C)=O)c1nc(C(=O)N[C@@H](Cc2ccccc2)C[C@H](C)C(=O)OC)cs1)C(C)C [Tb4, (2S,4R)-Methyl 4-(2-((2S,6S,9R,1 IR)-6-((S)-sec-butyl)-9-isopropyl-8-methyl-4,7,13-trioxo-2-phenyl-12-oxa-3,5,8-tri-azatetradecan-11-yl)thiazole-4-carboxamido)-2-methyl-5-phenylpentanoate] | advanced to further testing at lower concentrations
3 | CCC(C)[C@H](NC(=O)CN(C)C)C(=O)N(C)[C@H](C(=O)NC12C3C4C1C1C2C3C41C(=O)N[C@@H](Cc1ccccc1)C[C@H](C)C(=O)OC)C(C)C (stereo in doubt) [Tb18, Methyl (2S,4R)-4-(4-((S)-2-((2S,3S)-2-(2-(dimethylamino)acetamido)-N,3-dimethylpentanamido)-3-methylbutanamido)cubane-1-carboxamido)-2-methyl-5-phenylpentanoate] | failed to pass the one-dose test
4 | COC(=O)[C@@H](C)C[C@H](Cc1ccccc1)NC(=O)c1csc([C@@H](C[C@H](C(C)C)N(C)C(=O)[C@@H](NC(=O)[C@H]2CCCCN2C)C2CC2)OC(C)=O)n1 [Tb20, Methyl (2S,4R)-4-(2-((1R,3R)-1-acetoxy-3-((S)-2-cyclopropyl-N-methyl-2-((R)-1-methylpiperidine-2-carboxamido)acetamido)-4-methylpentyl)thiazole-4-carboxamido)-2-methyl-5-phenylpentanoate] | advanced to further testing at lower concentrations
5 | CC[C@H](C)[C@H](NC(=O)C12C3C4C1C1C2C3C41NC)C(=O)N(C)[C@H](C[C@@H](OC(C)=O)c1nc(C(=O)N[C@@H](Cc2ccccc2)C[C@H](C)C(=O)OC)cs1)C(C)C (stereo partly drawn) [Tb10, Methyl(2S,4R)-4-(2-((1R,3R)-1-acetoxy-3-((2S,3S)—N,3-dimethyl-2-(4-(methylamino)cubane-1-carboxamido)pentanamido)-4-methylpentyl)thiazole-4-carboxamido)-2-methyl-5-phenylpentanoate] | advanced to further testing at lower concentrations
6 | CCC(C)[C@H](NC(=O)c1ccccn1)C(=O)N(C)[C@H](C[C@@H](OC(C)=O)c1nc(C(=O)NC23C4C5C2C2C3C4C52C(=O)OC)cs1)C(C)C (stereo in doubt) [Tb12, Methyl 4-(2-((1R,3R)-1-acetoxy-3-((2S,3S)—N,3-dimethyl-2-(picolinamido)pentanamido)-4-methyl-pentyl)thiazole-4-carboxamido)cubane-1-carboxylate] | failed to pass the one-dose test
7 | CC[C@H](C)[C@H](NC(=O)c1ccccn1)C(=O)N(C)[C@H](C[C@@H](OC(C)=O)c1nc(C(=O)N[C@@H](Cc2ccccc2)C[C@H](C)C(=O)OC)cs1)C(C)C [Tb3, (2S,4R)-Methyl 4-(2-((1R,3R)-1-acetoxy-3-((2S,3S)—N,3-dimethyl-2-(picolinamido)pentanamido)-4-methylpentyl)thi-azole-4-carboxamido)-2-methyl-5-phenylpentanoate] | advanced to further testing at lower concentrations
8 | CC[C@H](C)[C@H](NC(=O)Nc1ccccc1)C(=O)N(C)[C@H](C[C@@H](OC(C)=O)c1nc(C(=O)N[C@@H](Cc2ccccc2)C[C@H](C)C(=O)OC)cs1)C(C)C [Tb5, (2S,4R)-Methyl 4-(2-((1R,3R)-1-acetoxy-3-((2S,3S)—N,3-dimethyl-2-(3-phenylureido)pentanamido)-4-methylpentyl)thiazole-4-carboxamido)-2-methyl-5-phenylpentanoate] | advanced to further testing at lower concentrations
9 | CCC(C)[C@H](NC(=O)c1ccccn1)C(=O)N(C)[C@H](C[C@@H](OC(C)=O)c1nc(C(=O)NC23CC(C(=O)OC)(C2)C3)cs1)C(C)C (stereo in doubt) [Tb15, Methyl 3-(2-((1R,3R)-1-acetoxy-3-((2S,3S)—N,3-dimethyl-2-(picolinamido)pentanamido)-4-methyl-pentyl)thiazole-4-carboxamido)bicyclo[1.1.1]pentane-1-carboxylate] | failed to pass the one-dose test
10 | CCC(C)[C@H](NC(=O)CN(C)C)C(=O)N(C)[C@H](C[C@@H](OC(C)=O)c1nc(C(=O)NC23C4C5C2C2C3C4C52C(=O)OC)cs1)C(C)C (stereo in doubt) [Tb13, Methyl 4-(2-((6S,9R,11R)-6-((S)-sec-butyl)-9-isopropyl-2,8-dimethyl-4,7,13-trioxo-12-oxa-2,5,8-triaza-tetradecan-11-yl)thiazole-4-carboxamido)cubane-1-carboxylate] | advanced to further testing at lower concentrations
11 | CC[C@H](C)[C@H](NC(=O)[C@H]1CCCCN1C)C(=O)N(C)[C@H](C[C@@H](OC(C)=O)c1nc(C(=O)N[C@@H](Cc2ccccc2)C[C@H](C)C(=O)OC)cs1)C(C)C [Tb2, Methyl (2S,4R)-4-(2-((1R,3R)-1-acetoxy-3-((2S,3S)—N,3-dimethyl-2-((R)-1-methylpiperidine-2-carbo-xamido)pentanamido)-4-methylpentyl)thiazole-4-carboxamido)-2-methyl-5-phenylpentanoate] | advanced to further testing at lower concentrations
12 | COC(=O)[C@@H](C)C[C@H](Cc1ccccc1)NC(=O)c1csc([C@@H](C[C@H](C(C)C)N(C)C(=O)[C@@H](NC(=O)CN(C)C)C2CC2)OC(C)=O)n1 [Tb21, Methyl (2S,4R)-4-(2-((6S,9R,11R)-6-cyclopropyl-9-isopropyl-2,8-dimethyl-4,7,13-trioxo-12-oxa-2,5,8-triazatetradecan-11-yl)thiazole-4-carboxamido)-2-methyl-5-phenylpentanoate] | advanced to further testing at lower concentrations
13 | CC[C@@H](C)[C@H](NC(=O)CN(C)C)C(=O)N(C)[C@H](C[C@@H](OC(C)=O)c1nc(C(=O)NC23CC(C(=O)OC)(C2)C3)cs1)C(C)C [Tb16] | advanced to further testing at lower concentrations
14 | CC[C@H](C)[C@H](NC(=O)NC(C)(C)C)C(=O)N(C)[C@H](C[C@@H](OC(C)=O)c1nc(C(=O)N[C@@H](Cc2ccccc2)C[C@H](C)C(=O)OC)cs1)C(C)C [Tb6, Methyl (2S,4R)-4-(2-((6S,9R,1R)-6-((S)-sec-butyl)-9-isopropyl-2,2,8-trimethyl-4,7,13-trioxo-12-oxa-3,5,8-triazatetradecan-11-yl)thiazole-4-carboxamido)-2-methyl-5-phenylpentanoate] | advanced to further testing at lower concentrations
15 | CCC(C)[C@H](NC(=O)[C@H]1CCCCN1C)C(=O)N(C)[C@H](C[C@@H](OC(C)=O)c1nc(C(=O)NC23CC(C(=O)OC)(C2)C3)cs1)C(C)C (stereo in doubt) [Tb14, Methyl 3-(2-((1R,3R)-1-acetoxy-3-((2S,3S)—N,3-dimethyl-2-((R)-1-methylpiperidine-2-carboxamido)-pentanamido)-4-methylpentyl)thiazole-4-carboxamido)bicyclo[1.1.1]pentane-1-carboxylate] | advanced to further testing at lower concentrations
16 | CCC(C)[C@H](NC(=O)[C@H]1CCCCN1C)C(=O)N(C)[C@H](C(=O)NC12CC(C(=O)N[C@@H](Cc3ccccc3)C[C@H](C)C(=O)OC)(C1)C2)C(C)C (stereo in doubt) [Tb19, Methyl (2S,4R)-4-(3-((S)-2-((2S,3S)—N,3-dimethyl-2-((R)-1-methylpiperidine-2 carboxamido)pentan amido)-3-methylbutanamido)bicyclo[1.1.1]pentane-1-carboxamido)-2-methyl-5-phenylpentanoate] | failed to pass the one-dose test
17 | CC[C@H](C)[C@H](NC(=O)C12C3C4C1C1C2C3C41NC(C)=O)C(=O)N(C)[C@H](C[C@@H](OC(C)=O)c1nc(C(=O)N[C@@H](Cc2ccccc2)C[C@H](C)C(=O)OC)cs1)C(C)C (stereo partly drawn) [Tb9, Methyl(2S,4R)-4-(2-((R,3R)-3-((2S,3S)-2-(4-acetamidocubane-1-carboxamido)-N,3-dimethylpentan amido)-1-acetoxy-4-methylpentyl)thiazole-4-carboxamido)-2-methyl-5-phenylpentanoate] | advanced to further testing at lower concentrations
18 | CNC12C3C4C1C1C2C3C41C(=O)N[C@H](C(=O)N(C)[C@H](C[C@@H](OC(C)=O)c1nc(C(=O)N[C@@H](Cc2ccccc2)C[C@H](C)C(=O)OC)cs1)C(C)C)C1CC1 (stereo partly drawn) [Tb23, Methyl (2S,4R)-4-(2-((1R,3R)-1-acetoxy-3-((S)-2-cyclopropyl-N-methyl-2-(4-(methylamino)cubane-1-carboxamido)acetamido)-4-methylpentyl)thiazole-4-carboxamido)-2-methyl-5-phenylpentanoate] | advanced to further testing at lower concentrations
